# Assay results: the supplement of paper PMC5949888
# Most values lie at the floor of the assay. Slopes are relative: functional sequences can read slightly below zero.
# Test system: Saccharomyces cerevisiae PS128 hsf1 delta, HSF1(1-493) fusion
# Test: growth estimate (transactivation domain function in HSF1 fusion, heat-shock survival) (a.u. (slope of normalised read count over time)); higher = stronger growth at 37°C, i.e. more transactivation activity
# Conditions: library: random library
row,Substance,growth estimate
1,KCSRDFSHLAVLTRSVPHFR,< -0.25
2,VESYITSLYELAISLMADPY,< -0.25
3,EDGSGEAL,< -0.25
4,LKLTKAIRNVTVRQLELQDF,< -0.25
5,IVNSCSSVRNPACSSFASGS,< -0.25
6,CQRH,< -0.25
7,GFAV,< -0.25
8,DTIHMVRVYKTTPSKVPCRG,< -0.25
9,ITELNEQVPK,< -0.25
10,IPEDS,< -0.25
11,HPTIVSWHVRAPLSPSVAPV,< -0.25
12,IEDGSSEPLLCRGSHSSDSH,< -0.25
13,DPWV,0.016
14,HRPPRPQRALIKT,< -0.25
15,ASGEARLPRGQMHVAYRPLQ,< -0.25
16,HQRRWELLGEK,< -0.25
17,RGVHLTNERMGMRRSRICER,< -0.25
18,QDRTLGSRKIQLAVTCPITC,< -0.25
19,YLRFLGEERSLIIKALRYPV,< -0.25
20,LMRFSKLLHSSC,< -0.25
21,SAGTAHCTRPSRLSRDTSYD,< -0.25
22,RWWIFELFVT,< -0.25
23,KLEVGRVLIWFLSWIPRICD,< -0.25
24,ARLGAQECPSRSCTR,< -0.25
25,SLAELRQIFIVLRTLPWFLP,< -0.25

# Exported as tab-separated lines: entries from further up
row	Substance	growth estimate
5	IVNSCSSVRNPACSSFASGS	< -0.25
7	GFAV	< -0.25
11	HPTIVSWHVRAPLSPSVAPV	< -0.25
12	IEDGSSEPLLCRGSHSSDSH	< -0.25
14	HRPPRPQRALIKT	< -0.25
16	HQRRWELLGEK	< -0.25
24	ARLGAQECPSRSCTR	< -0.25

# 5 entries drawn at random from those above, as already listed:
row,Substance,growth estimate
1,KCSRDFSHLAVLTRSVPHFR,< -0.25
24,ARLGAQECPSRSCTR,< -0.25
25,SLAELRQIFIVLRTLPWFLP,< -0.25
6,CQRH,< -0.25
18,QDRTLGSRKIQLAVTCPITC,< -0.25

# (continued)

row,Substance,growth estimate
1,GLSIWATQDNLLTNIYMRSF,-0.248
2,PITSK,< -0.25
3,TREAIQ,< -0.25
4,RPWHLLDFVSLVLRVFRIPV,< -0.25
5,AMRGVSTAVNESSVYAEIG,< -0.25
6,SSTRVLGHWGVSAMTKKAFC,< -0.25
7,RSIFATKTNGSVEVRVEGYQ,< -0.25
8,PSNQTSIRTIGKKKIAPSLN,< -0.25
9,NEVHGVVSTDHVCHYLVGWV,< -0.25
10,WNPAVDC,< -0.25
11,GRVA,< -0.25
12,AHAS,< -0.25
13,MDSGEIGHVLQPLLLKVRDA,< -0.25
14,TLNCA,< -0.25
15,DSLRVTIDLFCQKWLRRHGL,< -0.25
16,LLGGGSLGIANHGRNLFPDS,< -0.25
17,SCRPRLGIESHTLKTERRVP,< -0.25
18,YGHHFPSVFSDCLGRPNREC,< -0.25
19,LRFRYTSKSNQLLR,< -0.25
20,WKLTFRQSPARPLHGSIANG,< -0.25
21,DSRGGVQSVELAG,< -0.25
22,SVRGLRETVRRSISKKAIRR,< -0.25
23,DLIF,< -0.25
24,SPSSIARWLKIGRKHARSRN,< -0.25
25,VNQDGFRRAHIFRGRPNLPM,< -0.25

# For reference, some entries already given:
row,Substance,growth estimate
22,SVRGLRETVRRSISKKAIRR,< -0.25
23,DLIF,< -0.25
24,SPSSIARWLKIGRKHARSRN,< -0.25

# Next part:

row,Substance,growth estimate
1,YSWVRKECSRKHLSMRSPD,< -0.25
2,VLATR,< -0.25
3,RRRPHSVTAPARCKPFTIAS,< -0.25
4,MGGGD,< -0.25
5,GVERARSQSNNEFGPYRSVS,< -0.25
6,GSFIGMQASVILER,< -0.25
7,CKTATACVSEWSTTGFNPGM,< -0.25
8,FSEYASRSDPCPRDSQRPEP,< -0.25
9,LHTVPAVFRVNPPMCQGTEC,< -0.25
10,GANVVAKGRGRQKARLASFS,-0.241
11,ASLSRLERRLRK,< -0.25
12,FTGIPLIRLR,< -0.25
13,HDDRHSPVFPDLGECISTMR,< -0.25
14,GAPGEPGPADNYI,< -0.25
15,LYSGHL,< -0.25
16,AFRDGLRFSERCDLQFQIAF,< -0.25
17,GQHYRALS,< -0.25
18,ETGL,-0.248
19,GTQARNGLV,-0.246
20,TLGVKRETITYRWFWGPSQT,< -0.25
21,IRAQMKIFHYTARVGTGVLS,< -0.25
22,WLSPRGPAPGE,< -0.25
23,CVVMGSI,< -0.25
24,RVRLIESRYASTR,< -0.25
25,STVIG,< -0.25

row,Substance,growth estimate
1,QRKWEGEYSAAHAEES,< -0.25
2,ASGPKLPRF,< -0.25
3,WRDVCSFRNYSHGTLRLSSI,< -0.25
4,RSYTAVRA,< -0.25
5,RATEVRASPLENLATGSDQG,< -0.25
6,FYQRDTDAPYE,< -0.25
7,YVDQGTNRGSDTHDPHARQQ,< -0.25
8,IGPESGKIKHTNPVLLPSLT,< -0.25
9,RLASSDVL,< -0.25
10,DCCTARVAVGYLANSETAL,< -0.25
11,LGVRFDVNYLSGTKSRRNTG,< -0.25
12,RPRDIVRQ,< -0.25
13,YSLDV,< -0.25
14,VCLTDQVWRL,< -0.25
15,SVRIPGLSAYRVVDLLDVAP,< -0.25
16,TSLAVRKWQNIRARPGRLRI,< -0.25
17,LVRVVIIELGVRGSGAHNTG,< -0.25
18,SFRLTHTAMARQPSGFFDHD,< -0.25
19,RISVVSSFLRSRRRSLDQDA,< -0.25
20,ATRRHWVLRMVVSLETELLQ,< -0.25
21,LRN,< -0.25
22,LACIRQSDRGP,-0.244
23,LGGGAQGYSVVIITGHADRL,< -0.25
24,FQLKQRRSTRSSVYGNRVPA,< -0.25
25,RCLSIAQRLWILAEPIYDPT,< -0.25

row,Substance,growth estimate
1,YEV,< -0.25
2,VSVTRAVFRHEAVYLIPLRA,< -0.25
3,VSYAAGELIFAHSRAGFTCE,< -0.25
4,GLLAPVSDRLHESVVADY,< -0.25
5,VKWAGRS,< -0.25
6,AMSKSALVETADRVVFKNTR,< -0.25
7,PRMSVRFE,< -0.25
8,IVGILSLAYGRCAGTLPQHG,< -0.25
9,PSKVSATG,< -0.25
10,WGYQTVKSDCSHRVSENVDI,< -0.25
11,MKVSKSVILADAYRLRKTLY,< -0.25
12,RIML,< -0.25
13,GKGVCFTLFRSVYESLVTQR,< -0.25
14,LQKIRRS,< -0.25
15,SSDQLRW,< -0.25
16,LQR,< -0.25
17,NCR,< -0.25
18,GLPGMGMGQSR,< -0.25
19,SIRRTRVYLSPGLNRHGSYA,< -0.25
20,PYCELEELTNV,< -0.25
21,FTRLPSRQIPCLSVDRSFPG,< -0.25
22,AAGHYGTVVGQ,< -0.25
23,TGGAGDVGKRLDCCSIIGNS,< -0.25
24,VETRDFLGDLGSI,< -0.25
25,ASDSRRSWRRGRQASGTQKV,< -0.25

row,Substance,growth estimate
1,VAVWGHL,< -0.25
2,GPRTSRKREECCCVRPTE,< -0.25
3,YAARFWGSV,< -0.25
4,SIRSAGHACKSIKMIKLFNV,< -0.25
5,HPL,< -0.25
6,GDKSKTITYSRAVYIALRPG,< -0.25
7,YLGG,< -0.25
8,GQGRNYTGTVIVLTGV,-0.229
9,VSFEEGILIEGKQLCPQRGW,< -0.25
10,QRSIVG,< -0.25
11,PSNSPYRCIDGFFRECPGYS,< -0.25
12,LRTRVHGYNRAYPLKY,< -0.25
13,LVVSVIMQPNLGTSLFKT,< -0.25
14,ALTHWSRVRLSE,< -0.25
15,TVIRPIKAMSTGYLRMAGLG,< -0.25
16,AVEG,< -0.25
17,LFYTVTNQLFLRSNTCPVMT,< -0.25
18,IGPFVAGSPILRIVGN,< -0.25
19,TPTSSPGLFRRLSNW,< -0.25
20,TGCTGIFSNVQINCTRVFKD,< -0.25
21,TSFA,< -0.25
22,LIAVGLYLVTGRNLEFRNAV,< -0.25
23,KFRVLASCYTS,< -0.25
24,RLAMRDNGRYLSFGLVSVTG,< -0.25
25,RGSGPR,< -0.25

row,Substance,growth estimate
1,QNIYRHFQVTRRLQAA,< -0.25
2,ASPTRRFALGH,< -0.25
3,PSRQVG,< -0.25
4,NQPLCHKSTSEVPA,< -0.25
5,DGLVMVHGQLVWSFLVIFQG,< -0.25
6,CSRSGDDCCRRCVSVYEGMG,< -0.25
7,QRKGTPVGPFRGNQPVVAPA,< -0.25
8,ATHFATNPCGASAVSHGTAW,< -0.25
9,KGAIYSRHQVS,< -0.25
10,TRLLHSQICRQPRKLGSS,< -0.25
11,ECVTASEDSSVTLTGAERTL,< -0.25
12,SLT,< -0.25
13,LSGVYL,< -0.25
14,STHADERSEP,< -0.25
15,RRGKTPIRHGILLPRSISGR,< -0.25
16,GRLVLLLGAQARWVSLARCS,< -0.25
17,DPRAS,< -0.25
18,LYVTGFRNVATLIPKALLPY,< -0.25
19,LIDGCKKVRQRRVNS,< -0.25
20,FALL,< -0.25
21,MNNLRPGGSSGRVTGQSPRE,< -0.25
22,RFHSCLAATRSWWRGAAPLW,< -0.25
23,IYGVR,< -0.25
24,PGVKTQGYGGAKRGGQCRYY,< -0.25
25,TGESLSEKMHIISLCNNYAR,< -0.25

row,Substance,growth estimate
1,RGSSPEISGHSSGVVDRDHG,< -0.25
2,RLKMSFCRTRDPPR,< -0.25
3,TIGRRLASISTSLVLPSVLE,< -0.25
4,PGVRIVHLSWAGC,< -0.25
5,LFCQHRGGF,< -0.25
6,GSRLLRCRACHGNSLRIYPL,< -0.25
7,KQVYSEVVEWPSRVKYGLCL,-0.245
8,GCRGPSYTIRGRLH,< -0.25
9,PDAEWAATIVLRSLCRRPIP,< -0.25
10,VRDLFDLCGE,< -0.25
11,AQLTKYCCKDRKLVVHWSPY,< -0.25
12,DSVTWWFVYLPLE,< -0.25
13,PRH,< -0.25
14,SRGRTGDSPTCISSAIRHSA,< -0.25
15,LYPVVRSCPWWGGKYQSLRC,< -0.25
16,TIAAAVRRTGFVGTLWPRNR,< -0.25
17,TYSEPIGCFNWKRDGFLYFY,< -0.25
18,FVILSLGLRTLSCVSKGGSP,< -0.25
19,HISGVRVILFYG,< -0.25
20,DHQSPPE,< -0.25
21,MNMVGHKSPGSGNRMVYLIL,< -0.25
22,SCLRGLEIIG,< -0.25
23,CHLMSTEWCPRPSAQLTCKD,< -0.25
24,GNLGRN,< -0.25
